Test results taken from article PMC10055520.
These are yes or no findings as the source states them, for the method shown. Binding seen in cells or lysates may run through a third protein. Some results given as binding are weak or reduced against the parent protein; the word gives no strength. Tags and fused reporters may be left off the sequences shown.

The chains behind the UniProt entries cited, without tags or fusion partners.
UniProt P70210: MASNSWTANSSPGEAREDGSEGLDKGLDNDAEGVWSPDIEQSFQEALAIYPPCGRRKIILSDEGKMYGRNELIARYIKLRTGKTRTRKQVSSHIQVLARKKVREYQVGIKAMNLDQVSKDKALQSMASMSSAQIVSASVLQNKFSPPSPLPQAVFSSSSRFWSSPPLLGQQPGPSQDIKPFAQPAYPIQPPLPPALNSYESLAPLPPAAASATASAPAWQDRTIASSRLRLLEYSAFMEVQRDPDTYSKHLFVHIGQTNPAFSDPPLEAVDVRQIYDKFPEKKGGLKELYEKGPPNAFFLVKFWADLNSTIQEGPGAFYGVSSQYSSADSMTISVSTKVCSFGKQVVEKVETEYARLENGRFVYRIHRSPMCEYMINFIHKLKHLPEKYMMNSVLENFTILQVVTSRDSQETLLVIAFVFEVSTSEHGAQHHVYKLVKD
UniProt P46937: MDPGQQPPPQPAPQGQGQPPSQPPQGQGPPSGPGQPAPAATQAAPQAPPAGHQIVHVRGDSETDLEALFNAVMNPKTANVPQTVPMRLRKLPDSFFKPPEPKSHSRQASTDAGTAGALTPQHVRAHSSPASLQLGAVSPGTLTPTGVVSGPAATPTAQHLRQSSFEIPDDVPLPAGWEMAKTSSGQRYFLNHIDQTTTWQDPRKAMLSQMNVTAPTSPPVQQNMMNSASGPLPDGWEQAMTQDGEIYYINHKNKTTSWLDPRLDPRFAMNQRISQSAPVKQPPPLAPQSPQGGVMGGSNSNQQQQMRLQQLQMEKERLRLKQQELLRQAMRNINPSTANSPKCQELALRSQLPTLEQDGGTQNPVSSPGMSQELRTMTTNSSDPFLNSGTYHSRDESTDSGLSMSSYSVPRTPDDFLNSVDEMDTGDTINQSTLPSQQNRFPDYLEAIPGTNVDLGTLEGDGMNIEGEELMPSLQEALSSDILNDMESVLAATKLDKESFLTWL

B1: SFB-tagged full-length mouse Nfatc1 (protein, UniProt O88942 1-717)
chain: MPNTSFPVPSKFPLGPPAAVCGSGETLRPAPPSGGTMKAAEEEHYSYVSPSVTSTLPLPTAHSALPAACHDLQTSTPGISAVPSANHPPSYGGAVDSGPSGYFLSSGNTRPNGAPTLESPRIEITSYLGLHHGSGQFFHDVEVEDVLPSCKRSPSTATLHLPSLEAYRDPSCLSPASSLSSRSCNSEASSYESNYSYPYASPQTSPWQSPCVSPKTTDPEEGFPRSLGACHLLGSPRHSPSTSPRASITEESWLGARGSRPTSPCNKRKYSLNGRQPSCSPHHSPTPSPHGSPRVSVTEDTWLGNTTQYTSSAIVAAINALTTDSTLDLGDGVPIKSRKTALEHAPSVALKVEPAGEDLGTTPPTSDFPPEEYTFQHLRKGAFCEQYLSVPQASYQWAKPKSLSPTSYMSPSLPALDWQLPSHSGPYELRIEVQPKSHHRAHYETEGSRGAVKASAGGHPIVQLHGYLENEPLTLQLFIGTADDRLLRPHAFYQVHRITGKTVSTTSHEIILSNTKVLEIPLLPENNMRAIIDCAGILKLRNSDIELRKGETDIGRKNTRVRLVFRVHIPQPNGRTLSLQVASNPIECSQRSAQELPLVEKQSTDSYPVIGGKKMVLSGHNFLQDSKVIFVEKAPDGHHVWEMEAKTDRDLCKPNSLVVEIPPFRNQRITSPAQVSFYVCNGKRKRSQYQRFTYLPANGNSVFLTLSSESELRGGFY
B2: HA-Nfatc1 (protein, UniProt O88942 1-717)
chain: B1 chain

What was measured:
[1] = target: MYC-tagged full-length mouse Tead3 (mouse) (UniProt P70210); experiment: co-IP; HEK293T cells (control, MALAT1-knockout or Malat1-restored) co-transfected with SFB-Nfatc1 and MYC-Tead3; RIPA lysate; pulldown with S-protein beads or a MYC-specific antibody, 4 °C overnight; blots for MYC and FLAG
SFB-YAP = SFB-YAP (UniProt P46937); experiment: co-IP; HEK293T cells co-transfected with HA-Nfatc1 and SFB-YAP; pulldown with an HA-specific antibody or S-protein beads; blots for FLAG and HA

Row | Binder | binding [1] | binding (SFB-YAP)
1 | B1 | binds | 
2 | B2 |  | no binding
